Results as given in the supplement of paper PMC10849652.
This is one part of the list.

Sequences of proteins named here, by UniProt entry; tags and fusion partners are left off. A change or cut given only in a name is not applied to a line headed by its entry.
UniProt O75688: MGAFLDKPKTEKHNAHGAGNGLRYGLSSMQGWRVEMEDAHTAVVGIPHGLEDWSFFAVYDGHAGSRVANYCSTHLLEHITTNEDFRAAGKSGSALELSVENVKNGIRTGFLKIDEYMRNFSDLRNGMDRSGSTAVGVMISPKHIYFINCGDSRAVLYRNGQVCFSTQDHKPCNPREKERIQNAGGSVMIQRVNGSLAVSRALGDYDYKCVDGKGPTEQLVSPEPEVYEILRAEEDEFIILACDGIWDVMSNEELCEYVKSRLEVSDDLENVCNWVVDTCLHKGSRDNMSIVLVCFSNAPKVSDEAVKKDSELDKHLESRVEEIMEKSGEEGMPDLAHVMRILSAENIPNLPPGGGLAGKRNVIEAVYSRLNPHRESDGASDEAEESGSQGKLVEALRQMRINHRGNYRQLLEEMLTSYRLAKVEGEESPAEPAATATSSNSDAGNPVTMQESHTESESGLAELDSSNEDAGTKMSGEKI
UniProt Q9Y478: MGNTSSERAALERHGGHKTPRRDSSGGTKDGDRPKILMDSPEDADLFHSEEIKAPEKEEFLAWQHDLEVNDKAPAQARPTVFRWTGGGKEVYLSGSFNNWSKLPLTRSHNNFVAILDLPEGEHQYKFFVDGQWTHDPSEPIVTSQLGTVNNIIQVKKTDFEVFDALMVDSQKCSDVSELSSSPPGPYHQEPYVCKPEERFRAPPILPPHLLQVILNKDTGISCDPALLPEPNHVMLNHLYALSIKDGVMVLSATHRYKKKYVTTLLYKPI
UniProt O43741: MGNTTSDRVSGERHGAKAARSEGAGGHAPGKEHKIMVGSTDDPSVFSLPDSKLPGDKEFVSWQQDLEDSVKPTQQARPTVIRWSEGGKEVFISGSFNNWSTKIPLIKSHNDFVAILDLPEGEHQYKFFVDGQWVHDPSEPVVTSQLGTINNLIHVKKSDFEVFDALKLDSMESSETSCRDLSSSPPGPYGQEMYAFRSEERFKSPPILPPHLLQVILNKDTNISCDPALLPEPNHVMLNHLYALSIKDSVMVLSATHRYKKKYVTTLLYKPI
UniProt P62714, whole entry, looked up: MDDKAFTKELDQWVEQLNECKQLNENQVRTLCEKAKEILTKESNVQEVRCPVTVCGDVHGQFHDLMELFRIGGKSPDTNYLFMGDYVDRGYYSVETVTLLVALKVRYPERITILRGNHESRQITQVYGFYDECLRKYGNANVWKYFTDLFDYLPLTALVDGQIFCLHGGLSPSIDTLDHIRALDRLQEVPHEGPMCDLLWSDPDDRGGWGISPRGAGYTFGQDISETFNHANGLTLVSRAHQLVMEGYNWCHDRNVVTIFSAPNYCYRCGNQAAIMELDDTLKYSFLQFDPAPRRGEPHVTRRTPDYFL
UniProt Q05655: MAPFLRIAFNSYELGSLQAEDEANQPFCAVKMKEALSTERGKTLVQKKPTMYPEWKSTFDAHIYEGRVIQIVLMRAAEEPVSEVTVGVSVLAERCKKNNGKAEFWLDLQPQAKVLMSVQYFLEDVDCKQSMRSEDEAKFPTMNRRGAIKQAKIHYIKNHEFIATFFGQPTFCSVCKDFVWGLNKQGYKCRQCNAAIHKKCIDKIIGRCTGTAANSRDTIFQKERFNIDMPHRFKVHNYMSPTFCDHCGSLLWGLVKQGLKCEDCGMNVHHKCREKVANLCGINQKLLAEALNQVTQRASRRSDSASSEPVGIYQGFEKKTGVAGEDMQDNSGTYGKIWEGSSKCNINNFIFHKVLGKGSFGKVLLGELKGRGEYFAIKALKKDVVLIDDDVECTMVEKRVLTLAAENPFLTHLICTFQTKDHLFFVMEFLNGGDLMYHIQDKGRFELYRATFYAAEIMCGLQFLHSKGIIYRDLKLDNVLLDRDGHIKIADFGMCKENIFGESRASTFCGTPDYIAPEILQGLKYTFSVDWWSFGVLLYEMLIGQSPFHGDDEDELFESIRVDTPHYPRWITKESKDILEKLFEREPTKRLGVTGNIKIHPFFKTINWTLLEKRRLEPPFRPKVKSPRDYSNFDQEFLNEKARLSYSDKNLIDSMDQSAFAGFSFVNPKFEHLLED
UniProt O00743: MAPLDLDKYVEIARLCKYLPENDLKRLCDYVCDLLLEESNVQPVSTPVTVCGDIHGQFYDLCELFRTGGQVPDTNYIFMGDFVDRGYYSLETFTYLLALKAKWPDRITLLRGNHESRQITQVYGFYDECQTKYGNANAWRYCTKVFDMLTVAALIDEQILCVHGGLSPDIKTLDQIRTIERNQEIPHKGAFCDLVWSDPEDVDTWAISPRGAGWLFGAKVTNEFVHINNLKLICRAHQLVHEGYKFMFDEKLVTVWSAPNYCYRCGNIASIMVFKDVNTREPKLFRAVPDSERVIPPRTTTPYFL
UniProt Q9Y570: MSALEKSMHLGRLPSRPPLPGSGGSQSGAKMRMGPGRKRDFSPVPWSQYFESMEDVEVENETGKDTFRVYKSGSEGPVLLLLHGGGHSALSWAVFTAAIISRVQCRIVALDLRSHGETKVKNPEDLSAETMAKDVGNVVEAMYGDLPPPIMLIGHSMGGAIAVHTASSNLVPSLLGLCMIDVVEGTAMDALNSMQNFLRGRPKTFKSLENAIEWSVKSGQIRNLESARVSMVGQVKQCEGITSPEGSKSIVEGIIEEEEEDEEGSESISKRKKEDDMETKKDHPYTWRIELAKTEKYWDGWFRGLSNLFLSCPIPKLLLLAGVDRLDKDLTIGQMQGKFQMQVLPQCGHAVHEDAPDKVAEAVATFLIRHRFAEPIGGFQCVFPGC
UniProt P05771, whole entry, looked up: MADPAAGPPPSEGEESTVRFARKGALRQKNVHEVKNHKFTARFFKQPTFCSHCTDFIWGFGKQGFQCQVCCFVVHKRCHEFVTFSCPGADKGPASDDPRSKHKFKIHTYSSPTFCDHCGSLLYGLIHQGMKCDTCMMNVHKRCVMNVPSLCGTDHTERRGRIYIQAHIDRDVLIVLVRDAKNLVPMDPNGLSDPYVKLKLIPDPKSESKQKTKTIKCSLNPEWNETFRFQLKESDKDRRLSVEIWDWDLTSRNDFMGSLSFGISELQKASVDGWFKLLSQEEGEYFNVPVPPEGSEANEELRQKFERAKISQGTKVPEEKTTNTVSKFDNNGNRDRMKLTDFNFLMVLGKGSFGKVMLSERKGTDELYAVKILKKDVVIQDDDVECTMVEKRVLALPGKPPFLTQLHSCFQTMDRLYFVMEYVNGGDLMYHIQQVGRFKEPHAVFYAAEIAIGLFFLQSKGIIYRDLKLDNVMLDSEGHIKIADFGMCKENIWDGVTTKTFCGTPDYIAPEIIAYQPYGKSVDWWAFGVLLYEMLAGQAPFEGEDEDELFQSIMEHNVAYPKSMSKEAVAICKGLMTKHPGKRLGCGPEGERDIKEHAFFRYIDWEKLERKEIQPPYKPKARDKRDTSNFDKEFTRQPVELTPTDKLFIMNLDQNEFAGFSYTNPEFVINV
UniProt Q9NY27: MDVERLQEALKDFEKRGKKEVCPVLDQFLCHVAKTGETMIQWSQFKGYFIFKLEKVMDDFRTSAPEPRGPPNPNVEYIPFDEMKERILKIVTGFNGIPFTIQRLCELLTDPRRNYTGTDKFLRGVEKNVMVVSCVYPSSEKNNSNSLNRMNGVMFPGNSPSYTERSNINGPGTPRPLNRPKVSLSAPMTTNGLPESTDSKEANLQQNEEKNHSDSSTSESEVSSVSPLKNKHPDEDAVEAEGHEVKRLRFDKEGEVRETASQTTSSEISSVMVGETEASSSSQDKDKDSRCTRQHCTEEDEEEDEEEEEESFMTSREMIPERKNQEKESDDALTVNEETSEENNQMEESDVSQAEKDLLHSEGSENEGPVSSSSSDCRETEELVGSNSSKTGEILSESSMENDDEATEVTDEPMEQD
UniProt P42785: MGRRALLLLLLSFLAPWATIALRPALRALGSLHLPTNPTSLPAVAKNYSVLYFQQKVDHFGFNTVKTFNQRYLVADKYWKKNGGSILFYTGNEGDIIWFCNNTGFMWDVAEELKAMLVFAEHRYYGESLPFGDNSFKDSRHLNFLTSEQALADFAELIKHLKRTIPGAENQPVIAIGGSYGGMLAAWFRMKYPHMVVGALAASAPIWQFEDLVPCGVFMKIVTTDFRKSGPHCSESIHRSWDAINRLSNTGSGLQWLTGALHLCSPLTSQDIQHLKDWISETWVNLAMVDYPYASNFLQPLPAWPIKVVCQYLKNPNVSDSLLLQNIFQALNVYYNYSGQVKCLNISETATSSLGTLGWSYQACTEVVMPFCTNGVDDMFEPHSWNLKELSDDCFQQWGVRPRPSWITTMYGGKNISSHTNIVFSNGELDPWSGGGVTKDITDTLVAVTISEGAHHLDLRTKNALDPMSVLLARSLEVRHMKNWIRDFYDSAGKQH
UniProt P31321, whole entry, looked up: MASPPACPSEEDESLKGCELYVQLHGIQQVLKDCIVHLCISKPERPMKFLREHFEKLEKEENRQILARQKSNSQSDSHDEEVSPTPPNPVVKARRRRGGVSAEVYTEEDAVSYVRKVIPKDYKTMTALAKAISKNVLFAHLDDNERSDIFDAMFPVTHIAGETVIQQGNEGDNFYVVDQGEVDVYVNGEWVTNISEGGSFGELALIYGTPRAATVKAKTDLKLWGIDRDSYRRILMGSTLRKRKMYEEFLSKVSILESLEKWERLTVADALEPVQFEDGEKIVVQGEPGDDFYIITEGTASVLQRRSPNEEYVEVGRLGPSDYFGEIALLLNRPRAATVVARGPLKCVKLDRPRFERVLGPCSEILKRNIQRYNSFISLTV
UniProt K7ELL7: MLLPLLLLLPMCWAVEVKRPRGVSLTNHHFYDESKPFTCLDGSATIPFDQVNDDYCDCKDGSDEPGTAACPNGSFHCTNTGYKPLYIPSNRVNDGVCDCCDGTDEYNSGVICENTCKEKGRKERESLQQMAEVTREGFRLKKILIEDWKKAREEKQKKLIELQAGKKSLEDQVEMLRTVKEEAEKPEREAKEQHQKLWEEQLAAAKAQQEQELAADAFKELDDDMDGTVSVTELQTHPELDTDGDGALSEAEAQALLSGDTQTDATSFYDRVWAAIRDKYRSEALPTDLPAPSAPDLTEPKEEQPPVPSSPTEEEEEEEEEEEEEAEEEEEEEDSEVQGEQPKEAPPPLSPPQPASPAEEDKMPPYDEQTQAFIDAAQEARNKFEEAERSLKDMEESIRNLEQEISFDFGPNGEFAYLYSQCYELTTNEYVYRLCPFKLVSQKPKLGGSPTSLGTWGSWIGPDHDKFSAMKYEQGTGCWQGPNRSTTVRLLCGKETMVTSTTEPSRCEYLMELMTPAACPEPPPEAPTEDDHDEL
UniProt P32119: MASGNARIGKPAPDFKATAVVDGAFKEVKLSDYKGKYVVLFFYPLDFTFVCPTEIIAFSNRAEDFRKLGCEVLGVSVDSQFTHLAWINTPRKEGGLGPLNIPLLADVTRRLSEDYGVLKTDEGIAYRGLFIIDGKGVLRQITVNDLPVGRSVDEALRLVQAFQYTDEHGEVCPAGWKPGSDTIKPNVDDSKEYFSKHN
UniProt P30048: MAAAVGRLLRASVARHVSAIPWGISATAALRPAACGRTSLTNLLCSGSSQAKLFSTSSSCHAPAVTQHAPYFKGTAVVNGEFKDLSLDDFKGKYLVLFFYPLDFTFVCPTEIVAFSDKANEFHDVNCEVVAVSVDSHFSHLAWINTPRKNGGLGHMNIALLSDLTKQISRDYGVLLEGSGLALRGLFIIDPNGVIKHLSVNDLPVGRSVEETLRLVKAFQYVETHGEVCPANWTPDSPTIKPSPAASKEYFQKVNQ

How the values were obtained:
Test in all cases: log2 fold change, soluble protein after heating vs DMSO (PISA); higher = thermal stabilisation; K562 lysate, 10 uM; active = over 0.2 and 3.5 SD of the protein, either way, in both replicates (recomputed)
[1] = compound: CN1CC[C@H](c2c(O)cc(O)c3c(=O)cc(-c4ccccc4Cl)oc23)[C@H](O)C1 [alvocidib]
Outline: (§1)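 Soluble protein was defined as the supernatant remaining after 21,000xg for 90 min, following pooling of heated aliquots and adjustment to 0.5% NP-40 at 4°C. Before that, crude K562 extract at 1 mg/mL protein in PBS pH 7.4 with 1 mM MgCl2 was treated with 10 μM compound for 30 min and heated for 3 min across 48°C-58°C. Quantification used TMTpro 16plex LC-MS/MS with channel sums equalised, and values are log-two fold changes in thermal stability relative to solvent controls from duplicates.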

[2] = compound: CN1CCc2c(c3ccccc3n2Cc2ccc(C(=O)NO)cc2)C1 [Tubastatin A]
Outline: as §1

[3] = compound: CNC(=O)C1=CC=CC=C1NC2=NC(=NC=C2Cl)NC3=C(C=C(C=C3)N4CCOCC4)OC
Outline: as §1

[4] = compound: CNC(=O)c1ccc(Nc2ncc(C(F)(F)F)c(NCc3nccnc3N(C)S(C)(=O)=O)n2)cc1 [defactinib]
Outline: as §1

[5] = compound: CNc1nc(-c2ccc3c(N)n[nH]c3c2)cc(N2C[C@@H](C(=O)NC3CCCCC3)CC[C@H]2C)n1
Outline: as §1

[6] = compound: COC(=O)N[C@@H](C)CNc1nccc(-c2cn(C(C)C)nc2-c2cc(Cl)cc(NS(C)(=O)=O)c2F)n1 [encorafenib]
Outline: as §1

[7] = compound: COC(=O)[C@H](CCSC)NC(=O)C1=C(C=C(C=C1)NC[C@H](CS)N)C2=CC=CC=C2
Outline: as §1

[8] = compound: COc1cc(Nc2ncc3c(n2)-c2ccc(Cl)cc2C(c2c(F)cccc2OC)=NC3)ccc1C(=O)O [alisertib]
Outline: as §1

[9] = compound: COc1cc2nc(-c3cc(F)ccc3O)nc(N[C@@H]3CNC[C@H]3C(C)(C)O)c2cc1OC
Outline: as §1

[10] = compound: COc1cc2ncnc(Nc3ccc(F)c(Cl)c3)c2cc1OCCCN1CCOCC1 [gefitinib]
Outline: as §1

[11] = compound: CS(=O)(=O)CCNCc1ccc(-c2ccc3ncnc(Nc4ccc(OCc5cccc(F)c5)c(Cl)c4)c3c2)o1 [lapatinib]
Outline: as §1

[12] = compound: CS(=O)(=O)N1CCN(Cc2cc3nc(-c4cccc5[nH]ncc45)nc(N4CCOCC4)c3s2)CC1 [pictilisib]
Outline: as §1

[13] = compound: C[C@@H](Oc1cc(-c2cnn(C3CCNCC3)c2)cnc1N)c1c(Cl)ccc(F)c1Cl [crizotinib]
Outline: as §1

[14] = compound: C[C@H](C1=CC=C(C=C1)C(=O)NC2=C3C=CNC3=NC=C2)N
Outline: as §1

[15] = compound: C[C@H](Nc1ncnc2nc[nH]c12)c1cc2cccc(Cl)c2c(=O)n1-c1ccccc1 [duvelisib]
Outline: as §1

[16] = compound: Cc1cc(Nc2cc(CN3CCOCC3)c3nc(C)c(Cc4ccc(Cl)cc4F)n3n2)n[nH]1 [gandotinib]
Outline: as §1

[17] = compound: Cc1cc(Nc2cc(N3CCN(C)CC3)nc(Sc3ccc(NC(=O)C4CC4)cc3)n2)n[nH]1 [tozasertib]
Outline: as §1

[18] = compound: Cc1ccc(-n2nc(C(C)(C)C)cc2NC(=O)Nc2ccc(OCCN3CCOCC3)c3ccccc23)cc1 [doramapimod]
Outline: as §1

[19] = compound: Cc1ccc(NC(=O)c2ccc(CN3CC[C@H](N(C)C)C3)c(C(F)(F)F)c2)cc1Nc1nccc(-c2cncnc2)n1 [bafetinib]
Outline: as §1

[20] = compound: Cc1cccc(CC(=O)N2CCc3c2ccc(-c2cn(C)c4ncnc(N)c24)c3F)n1
Outline: as §1

Target | log2 fold change [1] | log2 fold change [2] | log2 fold change [3] | log2 fold change [4] | log2 fold change [5] | log2 fold change [6] | log2 fold change [7] | log2 fold change [8] | log2 fold change [9] | log2 fold change [10] | log2 fold change [11] | log2 fold change [12] | log2 fold change [13] | log2 fold change [14] | log2 fold change [15] | log2 fold change [16] | log2 fold change [17] | log2 fold change [18] | log2 fold change [19] | log2 fold change [20]
PPM1B (UniProt O75688) | inactive: -0.029 | inactive: 0.025 | inactive: -0.016 | inactive: -0.008 | inactive: 0.091 | inactive: 0.016 | inactive: -0.012 | inactive: -0.002 | inactive: 0.008 | inactive: 0.018 | inactive: 0.013 | inactive: -0.016 | inactive: 0.004 | inactive: -0.088 | inactive: 0.004 | inactive: 0.044 | inactive: 0.005 | inactive: 0.009 | inactive: -0.038 | inactive: 0.087
PRKAB1 (UniProt Q9Y478) | inactive: 0.112 | inactive: 0 | inactive: 0.147 | inactive: 0.174 | inactive: 0.018 | inactive: -0.041 | inactive: -0.066 | inactive: 0.008 | inactive: 0.091 | inactive: -0.005 | inactive: -0.024 | inactive: 0.051 | inactive: -0.051 | inactive: -0.016 | inactive: 0.045 | inactive: 0.08 | inactive: 0.113 | inactive: -0.022 | inactive: -0.036 | inactive: -0.182
PRKCA (UniProt P17252) | inactive: 0.034 | inactive: -0.005 | inactive: -0.027 | inactive: 0.032 | inactive: -0.041 | inactive: 0.048 | inactive: -0.041 | inactive: -0.031 | inactive: 0.133 | inactive: -0.038 | inactive: -0.041 | inactive: -0.021 | inactive: -0.019 | inactive: 0.054 | inactive: -0.057 | inactive: -0.207 | inactive: 0.021 | inactive: -0.023 | inactive: -0.069 | inactive: -0.079
PRKAB2 (UniProt O43741) | inactive: -0.122 | inactive: -0.016 | inactive: 0.286 | inactive: 0.057 | inactive: 0.062 | inactive: -0.04 | inactive: -0.09 | inactive: -0.062 | inactive: 0.058 | inactive: -0.126 | inactive: -0.029 | inactive: 0.09 | inactive: -0.013 | active: -0.698 | inactive: 0.019 | inactive: 0.25 | inactive: 0.111 | inactive: 0.039 | inactive: 0.052 | inactive: 0.142
PPP2CB (UniProt P62714) | inactive: 0.005 | inactive: -0.001 | inactive: 0.025 | inactive: -0.019 | inactive: 0.007 | inactive: 0.001 | inactive: -0.124 | inactive: -0.055 | inactive: 0.002 | inactive: -0.004 | inactive: 0.006 | inactive: 0.015 | inactive: 0.01 | inactive: -0.031 | inactive: 0.011 | inactive: 0.028 | inactive: -0.024 | inactive: 0.016 | inactive: 0.005 | inactive: 0.009
PRKCD (UniProt Q05655) | inactive: -0.082 | inactive: 0.036 | inactive: -0.012 | inactive: -0.032 | inactive: -0.003 | inactive: -0.009 | inactive: 0.056 | inactive: -0.031 | active: 0.235 | inactive: 0.002 | inactive: -0.143 | inactive: 0.003 | inactive: -0.011 | inactive: -0.135 | inactive: 0.024 | inactive: 0.009 | inactive: 0.015 | inactive: 0.005 | inactive: -0.069 | inactive: 0.007
PRPF19 (UniProt Q9UMS4) | inactive: 0.006 | inactive: -0.018 | inactive: 0.024 | inactive: 0.022 | inactive: -0.047 | inactive: 0.019 | inactive: -0.208 | inactive: 0.016 | inactive: -0.009 | inactive: -0.036 | inactive: -0.022 | inactive: 0.007 | inactive: 0.011 | inactive: -0.001 | inactive: 0.002 | inactive: 0 | inactive: 0.032 | inactive: 0.013 | inactive: 0.011 | inactive: -0.04
PPP6C isoform 3 (UniProt O00743) | inactive: -0.007 | inactive: -0.015 | inactive: -0.005 | inactive: 0.002 | inactive: -0.077 | inactive: -0.001 | inactive: -0.104 | inactive: -0.012 | inactive: 0.003 | inactive: -0.006 | inactive: -0.011 | inactive: -0.015 | inactive: 0.019 | inactive: -0.05 | inactive: -0.004 | inactive: 0.036 | inactive: 0.006 | inactive: 0 | inactive: 0.006 | inactive: 0.01
PPME1 isoform 4 (UniProt Q9Y570) | inactive: 0.01 | inactive: 0.024 | inactive: 0.008 | inactive: 0.024 | inactive: 0.002 | inactive: -0.001 | inactive: -0.066 | inactive: 0.031 | inactive: 0.005 | inactive: 0.002 | inactive: -0.014 | inactive: 0.009 | inactive: 0.005 | inactive: -0.014 | inactive: 0.002 | inactive: -0.002 | inactive: 0.048 | inactive: 0.026 | inactive: 0.052 | inactive: -0.006
PRKCB isoform 2 (UniProt P05771) | inactive: -0.004 | inactive: 0.054 | inactive: -0.029 | inactive: -0.019 | inactive: 0.03 | inactive: 0.057 | inactive: -0.203 | inactive: 0.039 | inactive: 0.148 | inactive: 0.008 | inactive: -0.001 | inactive: 0.003 | inactive: 0.036 | inactive: -0.012 | inactive: 0.033 | inactive: -0.122 | inactive: 0.035 | inactive: 0.009 | inactive: -0.01 | inactive: 0.021
PPP4R2 (UniProt Q9NY27) | inactive: 0.021 | inactive: 0.013 | inactive: 0.018 | inactive: 0.015 | inactive: 0.014 | inactive: 0.025 | inactive: -0.014 | inactive: -0.058 | inactive: -0.002 | inactive: -0.01 | inactive: 0.057 | inactive: -0.003 | inactive: 0.023 | inactive: 0.159 | inactive: 0.003 | inactive: -0.011 | inactive: -0.007 | inactive: -0.022 | inactive: 0.021 | inactive: -0.048
PRCP (UniProt P42785) | inactive: -0.012 | inactive: 0.079 | inactive: -0.019 | inactive: -0.02 | inactive: -0.19 | inactive: -0.01 | inactive: -0.004 | inactive: -0.039 | inactive: -0.005 | inactive: 0.021 | inactive: 0.012 | inactive: -0.008 | inactive: -0.089 | inactive: -0.001 | inactive: 0.014 | inactive: 0.057 | inactive: 0.024 | inactive: -0.049 | inactive: -0.039 | inactive: -0.011
PRKAR1B (UniProt P31321) | inactive: -0.038 | inactive: -0.069 | inactive: 0.024 | inactive: -0.016 | inactive: -0.126 | inactive: -0.018 | inactive: 0.016 | inactive: -0.015 | inactive: 0.004 | inactive: -0.018 | inactive: -0.034 | inactive: -0.075 | inactive: 0.119 | inactive: -0.124 | inactive: -0.032 | inactive: 0.021 | inactive: 0.083 | inactive: 0.02 | inactive: 0.088 | inactive: 0.046
PRKCSH (UniProt K7ELL7) | inactive: 0.048 | inactive: 0.073 | inactive: -0.026 | inactive: 0.006 | inactive: -0.013 | inactive: 0.048 | inactive: -0.002 | inactive: 0.018 | inactive: 0.083 | inactive: -0.12 | inactive: -0.009 | inactive: 0.028 | inactive: 0.061 | inactive: 0.181 | inactive: 0.1 | inactive: -0.047 | inactive: 0.062 | inactive: -0.044 | inactive: 0.031 | inactive: -0.019
PRDX2 (UniProt P32119) | inactive: -0.066 | inactive: 0.051 | inactive: -0.019 | inactive: -0.021 | inactive: 0.086 | inactive: -0.008 | inactive: -0.014 | inactive: 0.003 | inactive: 0.012 | inactive: 0.004 | inactive: 0.005 | inactive: 0.031 | inactive: 0.031 | inactive: -0.095 | inactive: -0.019 | inactive: 0.061 | inactive: 0.018 | inactive: 0 | inactive: 0.038 | inactive: 0.043
PRDX3 (UniProt P30048) | inactive: 0.007 | inactive: 0.035 | inactive: 0.007 | inactive: 0.008 | inactive: 0.02 | inactive: -0.035 | inactive: 0.007 | inactive: -0.026 | inactive: 0.013 | inactive: -0.06 | inactive: 0.041 | inactive: 0.026 | inactive: 0.027 | inactive: 0.055 | inactive: 0.009 | inactive: -0.03 | inactive: -0.015 | inactive: -0.032 | inactive: 0.014 | inactive: -0.006

A second format for part of the listing above.
Target	log2 fold change [1]	log2 fold change [2]	log2 fold change [3]	log2 fold change [4]	log2 fold change [5]	log2 fold change [6]	log2 fold change [7]	log2 fold change [8]	log2 fold change [9]	log2 fold change [10]	log2 fold change [11]	log2 fold change [12]	log2 fold change [13]	log2 fold change [14]	log2 fold change [15]	log2 fold change [16]	log2 fold change [17]	log2 fold change [18]	log2 fold change [19]	log2 fold change [20]
PRDX2 (UniProt P32119)	inactive: -0.066	inactive: 0.051	inactive: -0.019	inactive: -0.021	inactive: 0.086	inactive: -0.008	inactive: -0.014	inactive: 0.003	inactive: 0.012	inactive: 0.004	inactive: 0.005	inactive: 0.031	inactive: 0.031	inactive: -0.095	inactive: -0.019	inactive: 0.061	inactive: 0.018	inactive: 0	inactive: 0.038	inactive: 0.043
PRDX3 (UniProt P30048)	inactive: 0.007	inactive: 0.035	inactive: 0.007	inactive: 0.008	inactive: 0.02	inactive: -0.035	inactive: 0.007	inactive: -0.026	inactive: 0.013	inactive: -0.06	inactive: 0.041	inactive: 0.026	inactive: 0.027	inactive: 0.055	inactive: 0.009	inactive: -0.03	inactive: -0.015	inactive: -0.032	inactive: 0.014	inactive: -0.006
